# Results from US20050075276A1, “Use of inhibitors of glycogen synthase-3 to augment CD28 dependent -T-cell responses” (priority 2003, published 2005).
# Test system: IL-2 transcription
# Conditions: 100 uM, FIG. 3B
compound,measurement,setting,value
O=C1NC(=O)C(c2ccccc2[N+](=O)[O-])=C1Nc1ccc(O)c(Cl)c1 [SB415286],effect on IL-2 gene activation in the context of CD28 co-ligation,anti-CD3/CD28 activation,preferentially increased the response
same,effect on anti-CD3 induced gene activation,anti-CD3 alone,slight effect
same,effect on anti-CD3 induced gene activation relative to that in the context of anti-CD28 co-ligation,,~10 fold lower
